Measurements as given in patent publication US20220403044A1 (ACADEMIA SINICA, published 2022).
No constants are given. Whether binding was seen depends on the method and setting. For part of these data: In cells and extracts the contact can be indirect. Some entries that bind do so weakly or less than the wild type. Tags and fused reporters may be left off the sequences shown.

Key:
[1] = molecular target: EGFRECD-Flag (soluble extracellular domain of EGFR, Flag-tagged) (UniProt P00533); assay: IP with Protein G beads from culture medium of co-transfected HEK293T cells, Western blot with anti-Flag (FIG. 1E)
[2] = molecular target: EGFR (endogenous, on HCT116 or H441 cells) (human) (UniProt P00533); assay: DTSSP cross-linking on HCT116 cells, pull-down with Protein G beads, Western blot (FIG. 1A)
[3] = molecular target: EGFRECD-6×His (purified extracellular domain of EGFR, His-tagged) (UniProt P00533); assay: purified proteins incubated, IP with Protein G beads, Western blot (FIG. 1G)

binding [1]: binds | binding [2]: binds | binding [3]: binds
B1: EpEX-Fc (extracellular domain of EpCAM fused to Fc) (Fc fusion, UniProt P16422 24-262, looked up, not shown: a dimerising Fc or GST)
chain: QEECVCENYKLAVNCFVNNNRQCQCTSVGAQNTVICSKLAAKCLVMKAEMNGSKLGRRAKPEGALQNNDGLYDPDCDESGLFKAKQCNGTSMCWCVNTAGVRRTDKDTEITCSERVRTYWIIIELKHKAREKPYDSKSLRTALQKEITTRYQLDPKFITSILYENNVITIDLVQNSSQKTQNDVDIADVAYYFEKDVKGESLFHSKKMDLTVNGEQLDLDPGQTLIYYVDEKAPEFSMQ
